Data from PMC11111093.

Molecular target: T1, ADAP (adhesion and degranulation-promoting adapter protein), endogenous in iBMMs (mouse (endogenous in iBMMs)) (UniProt O35601)
T1 sequence: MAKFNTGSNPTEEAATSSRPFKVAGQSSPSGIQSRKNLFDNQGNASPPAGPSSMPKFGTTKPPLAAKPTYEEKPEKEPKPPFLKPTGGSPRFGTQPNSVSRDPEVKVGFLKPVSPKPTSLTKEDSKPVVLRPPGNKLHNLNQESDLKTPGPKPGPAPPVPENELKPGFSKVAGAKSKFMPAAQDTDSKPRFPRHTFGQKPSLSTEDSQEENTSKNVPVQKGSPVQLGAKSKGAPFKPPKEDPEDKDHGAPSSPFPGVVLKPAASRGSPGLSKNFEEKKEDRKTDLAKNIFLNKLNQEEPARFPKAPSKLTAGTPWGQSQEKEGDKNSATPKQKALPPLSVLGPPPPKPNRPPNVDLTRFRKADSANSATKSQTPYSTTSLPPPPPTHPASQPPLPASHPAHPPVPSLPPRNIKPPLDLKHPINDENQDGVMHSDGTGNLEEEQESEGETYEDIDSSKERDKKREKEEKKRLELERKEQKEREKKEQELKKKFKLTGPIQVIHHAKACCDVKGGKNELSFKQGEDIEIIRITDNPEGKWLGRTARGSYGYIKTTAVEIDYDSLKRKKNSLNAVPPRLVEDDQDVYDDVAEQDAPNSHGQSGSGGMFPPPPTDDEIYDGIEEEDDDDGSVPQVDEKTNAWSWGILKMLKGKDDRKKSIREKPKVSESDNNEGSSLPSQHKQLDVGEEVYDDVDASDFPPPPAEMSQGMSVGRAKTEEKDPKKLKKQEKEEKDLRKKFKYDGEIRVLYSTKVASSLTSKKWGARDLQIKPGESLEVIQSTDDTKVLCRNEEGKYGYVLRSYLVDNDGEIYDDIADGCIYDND
Test: affinity purification with mass spectrometry; anti-ADAP immunoprecipitate from sucrose-gradient fractions 11-12 of iBMMs, eluted with 8 M urea, trypsin, LC-MS/MS (LTQ Orbitrap Elite)

binding: binds
B1: RIG-I (retinoic acid-inducible gene I), endogenous in iBMMs (protein, UniProt Q6Q899 1-926)
chain: MTAEQRQNLQAFRDYIKKILDPTYILSYMSSWLEDEEVQYIQAEKNNKGPMEAASLFLQYLLKLQSEGWFQAFLDALYHAGYCGLCEAIESWDFQKIEKLEEHRLLLRRLEPEFKATVDPNDILSELSECLINQECEEIRQIRDTKGRMAGAEKMAECLIRSDKENWPKVLQLALEKDNSKFSELWIVDKGFKRAESKADEDDGAEASSIQIFIQEEPECQNLSQNPGPPSEASSNNLHSPLKPRNYQLELALPAKKGKNTIICAPTGCGKTFVSLLICEHHLKKFPCGQKGKVVFFANQIPVYEQQATVFSRYFERLGYNIASISGATSDSVSVQHIIEDNDIIILTPQILVNNLNNGAIPSLSVFTLMIFDECHNTSKNHPYNQIMFRYLDHKLGESRDPLPQVVGLTASVGVGDAKTAEEAMQHICKLCAALDASVIATVRDNVAELEQVVYKPQKISRKVASRTSNTFKCIISQLMKETEKLAKDVSEELGKLFQIQNREFGTQKYEQWIVGVHKACSVFQMADKEEESRVCKALFLYTSHLRKYNDALIISEDAQMTDALNYLKAFFHDVREAAFDETERELTRRFEEKLEELEKVSRDPSNENPKLRDLYLVLQEEYHLKPETKTILFVKTRALVDALKKWIEENPALSFLKPGILTGRGRTNRATGMTLPAQKCVLEAFRASGDNNILIATSVADEGIDIAECNLVILYEYVGNVIKMIQTRGRGRARDSKCFLLTSSADVIEKEKANMIKEKIMNESILRLQTWDEMKFGKTVHRIQVNEKLLRDSQHKPQPVPDKENKKLLCGKCKNFACYTADIRVVETSHYTVLGDAFKERFVCKPHPKPKIYDNFEKKAKIFCAKQNCSHDWGIFVRYKTFEIPVIKIESFVVEDIVSGVQNRHSKWKDFHFERIQFDPAEMSV

Results are given in words; binding and its absence hold for the method and conditions named. In cells and extracts the contact can be indirect. These calls come from enrichment with a bait or labelling near it, and not all partners need be listed.
